Measurements published in article PMC7193563.
No constants are given. Whether binding was seen depends on the method and setting. Binding seen in cells or lysates may run through a third protein. Some binding calls cover weakened binding; strength is not graded here. Each block holds one molecule with its values, some of them ahead of it.

Amino acid sequences for entries named in this document (tags omitted).
UniProt P35222: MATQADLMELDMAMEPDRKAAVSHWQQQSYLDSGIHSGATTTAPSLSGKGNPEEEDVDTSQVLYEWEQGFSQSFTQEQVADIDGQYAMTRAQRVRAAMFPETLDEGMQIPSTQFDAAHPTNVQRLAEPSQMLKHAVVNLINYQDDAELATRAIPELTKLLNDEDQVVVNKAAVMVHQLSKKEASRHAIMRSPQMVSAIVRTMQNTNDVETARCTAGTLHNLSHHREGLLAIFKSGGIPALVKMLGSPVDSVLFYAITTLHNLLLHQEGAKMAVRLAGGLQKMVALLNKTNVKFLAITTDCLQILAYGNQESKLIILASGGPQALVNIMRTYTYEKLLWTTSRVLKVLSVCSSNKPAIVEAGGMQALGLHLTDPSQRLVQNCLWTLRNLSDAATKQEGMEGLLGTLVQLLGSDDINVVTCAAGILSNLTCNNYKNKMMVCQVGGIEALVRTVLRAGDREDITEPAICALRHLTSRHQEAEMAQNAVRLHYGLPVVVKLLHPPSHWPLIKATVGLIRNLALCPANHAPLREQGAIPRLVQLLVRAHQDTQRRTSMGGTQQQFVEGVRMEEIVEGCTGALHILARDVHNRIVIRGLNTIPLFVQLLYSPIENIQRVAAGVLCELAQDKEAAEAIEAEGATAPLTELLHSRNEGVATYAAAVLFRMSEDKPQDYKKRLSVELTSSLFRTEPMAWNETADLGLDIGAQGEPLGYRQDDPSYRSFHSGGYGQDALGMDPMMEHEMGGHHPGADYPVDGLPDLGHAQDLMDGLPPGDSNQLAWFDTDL
UniProt Q13547: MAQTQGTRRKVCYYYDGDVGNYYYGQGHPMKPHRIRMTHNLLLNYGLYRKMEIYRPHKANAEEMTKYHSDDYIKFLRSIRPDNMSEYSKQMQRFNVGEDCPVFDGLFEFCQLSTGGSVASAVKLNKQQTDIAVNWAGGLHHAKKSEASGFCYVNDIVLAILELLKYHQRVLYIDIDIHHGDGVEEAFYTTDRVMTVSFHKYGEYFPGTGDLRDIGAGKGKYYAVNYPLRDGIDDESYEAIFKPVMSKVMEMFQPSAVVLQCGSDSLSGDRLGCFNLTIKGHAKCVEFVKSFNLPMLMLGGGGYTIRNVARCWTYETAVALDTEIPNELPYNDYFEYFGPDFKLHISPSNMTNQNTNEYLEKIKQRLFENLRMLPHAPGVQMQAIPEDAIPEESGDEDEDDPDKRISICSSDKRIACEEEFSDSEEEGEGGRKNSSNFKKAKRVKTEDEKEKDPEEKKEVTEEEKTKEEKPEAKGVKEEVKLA
UniProt Q9UBN7: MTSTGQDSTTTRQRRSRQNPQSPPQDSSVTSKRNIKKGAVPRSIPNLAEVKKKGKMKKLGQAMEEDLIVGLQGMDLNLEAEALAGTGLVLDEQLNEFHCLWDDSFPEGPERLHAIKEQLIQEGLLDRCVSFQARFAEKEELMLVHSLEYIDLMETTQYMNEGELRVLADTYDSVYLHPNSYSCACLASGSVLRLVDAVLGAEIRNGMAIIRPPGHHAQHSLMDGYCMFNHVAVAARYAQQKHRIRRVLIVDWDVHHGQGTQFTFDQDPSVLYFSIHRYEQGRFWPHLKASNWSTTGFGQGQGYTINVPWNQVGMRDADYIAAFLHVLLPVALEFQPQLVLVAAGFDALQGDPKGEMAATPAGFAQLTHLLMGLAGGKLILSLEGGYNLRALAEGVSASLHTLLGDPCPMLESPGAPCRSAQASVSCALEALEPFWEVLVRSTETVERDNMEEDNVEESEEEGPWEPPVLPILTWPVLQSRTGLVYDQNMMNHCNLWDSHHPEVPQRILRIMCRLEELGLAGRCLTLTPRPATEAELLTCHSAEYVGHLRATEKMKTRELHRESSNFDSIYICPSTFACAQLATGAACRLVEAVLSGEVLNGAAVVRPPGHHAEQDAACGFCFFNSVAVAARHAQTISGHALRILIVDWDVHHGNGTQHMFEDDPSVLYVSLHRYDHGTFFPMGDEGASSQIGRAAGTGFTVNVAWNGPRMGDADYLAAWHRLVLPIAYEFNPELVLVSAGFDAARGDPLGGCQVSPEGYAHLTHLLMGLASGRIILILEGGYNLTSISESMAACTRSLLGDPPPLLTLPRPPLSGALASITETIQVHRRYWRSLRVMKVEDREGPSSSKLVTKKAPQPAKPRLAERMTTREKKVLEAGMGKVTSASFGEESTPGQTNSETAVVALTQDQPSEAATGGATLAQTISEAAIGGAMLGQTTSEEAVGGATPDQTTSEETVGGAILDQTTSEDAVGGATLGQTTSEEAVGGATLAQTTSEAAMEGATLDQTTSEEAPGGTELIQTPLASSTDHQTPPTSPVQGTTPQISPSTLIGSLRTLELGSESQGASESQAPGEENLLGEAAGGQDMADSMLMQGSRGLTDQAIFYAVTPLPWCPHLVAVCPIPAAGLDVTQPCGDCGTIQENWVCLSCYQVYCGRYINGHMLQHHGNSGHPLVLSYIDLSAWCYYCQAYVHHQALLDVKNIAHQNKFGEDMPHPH

What was measured:
[1] = biological target: endogenous β-catenin (human (endogenous in HCT116)) (UniProt P35222); test: co-IP; lysates of control and Bcl-3-silenced HCT116 cells, IP with anti-β-catenin antibody, immunoblot; endogenous proteins
[2] = biological target: T1, endogenous Bcl-3 (B-cell lymphoma 3) (human (endogenous in HCT116)) (UniProt P20749); test: co-IP; HCT116 cell lysates, IP with anti-Bcl-3 antibody, immunoblot; endogenous proteins
T1 sequence: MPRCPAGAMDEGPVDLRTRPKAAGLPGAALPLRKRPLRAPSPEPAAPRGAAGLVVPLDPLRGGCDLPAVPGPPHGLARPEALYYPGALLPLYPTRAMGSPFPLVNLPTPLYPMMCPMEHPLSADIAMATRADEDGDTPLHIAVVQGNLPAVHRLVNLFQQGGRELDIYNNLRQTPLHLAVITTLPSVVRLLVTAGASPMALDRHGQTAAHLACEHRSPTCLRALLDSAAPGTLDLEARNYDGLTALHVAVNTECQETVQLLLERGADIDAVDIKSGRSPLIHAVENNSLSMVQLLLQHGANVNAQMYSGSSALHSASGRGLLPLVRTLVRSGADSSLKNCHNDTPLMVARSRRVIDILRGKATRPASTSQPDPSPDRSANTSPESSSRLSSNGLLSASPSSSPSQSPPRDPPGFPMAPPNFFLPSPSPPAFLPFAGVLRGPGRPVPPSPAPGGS

binding [2]: binds
Molecule: endogenous β-catenin (from UniProt P35222 1-781)

binding [1]: binds
B1: endogenous Bcl-3 (B-cell lymphoma 3) (protein, UniProt P20749 1-454)
chain: T1 sequence

The next lines start with the molecule.

Molecule: HDAC-1 (histone deacetylase 1) (from UniProt Q13547 1-482) (enzyme)
binding [1]: binds

Molecule: HDAC-6 (from UniProt Q9UBN7 1-1215) (enzyme)
binding [1]: binds
